# Measured values from paper PMC6316800.
# The chains behind the UniProt entries cited, without tags or fusion partners.
# UniProt P03496: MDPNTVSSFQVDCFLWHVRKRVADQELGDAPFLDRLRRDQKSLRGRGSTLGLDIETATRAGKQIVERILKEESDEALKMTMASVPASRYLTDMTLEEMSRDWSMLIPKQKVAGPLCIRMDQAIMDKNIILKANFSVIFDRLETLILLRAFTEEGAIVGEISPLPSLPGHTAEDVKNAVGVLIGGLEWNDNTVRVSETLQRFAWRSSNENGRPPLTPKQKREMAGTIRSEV
# These are yes or no findings as the source states them, for the method shown. In cells and extracts the contact can be indirect. A yes stands for co-enrichment or nearness to the bait. Other partners may have been found.
# Target: Influenza A virus non-structural protein 1 (NS1), strain A/Puerto Rico/8/1934(H1N1) (Influenza A virus A/Puerto Rico/8/1934(H1N1)) (UniProt P03496)
# Assay: affinity purification with mass spectrometry
row,Binder,binding
1,"5’-3’ exoribonuclease 2 (protein, UniProt Q9H0D6 1-950) MGVPAFFRWLSRKYPSIIVNCVEEKPKECNGVKIPVDASKPNPNDVEFDNLYLDMNGIIHPCTHPEDKPAPKNEDEMMVAIFEYIDRLFSIVRPRRLLYMAIDGVAPRAKMNQQRSRRFRASKEGMEAAVEKQRVREEILAKGGFLPPEEIKERFDSNCITPGTEFMDNLAKCLRYYIADRLNNDPGWKNLTVILSDASAPGEGEHKIMDYIRRQRAQPNHDPNTHHCLCGADADLIMLGLATHEPNFTIIREEFKPNKPKPCGLCNQFGHEVKDCEGLPREKKGKHDELADSLPCAEGEFIFLRLNVLREYLERELTMASLPFTFDVERSIDDWVFMCFFVGNDFLPHLPSLEIRENAIDRLVNIYKNVVHKTGGYLTESGYVNLQRVQMIMLAVGEVEDSIFKKRKDDEDSFRRRQKEKRKRMKRDQPAFTPSGILTPHALGSRNSPGSQVASNPRQAAYEMRMQNNSSPSISPNTSFTSDGSPSPLGGIKRKAEDSDSEPEPEDNVRLWEAGWKQRYYKNKFDVDAADEKFRRKVVQSYVEGLCWVLRYYYQGCASWKWYYPFHYAPFASDFEGIADMPSDFEKGTKPFKPLEQLMGVFPAASGNFLPPSWRKLMSDPDSSIIDFYPEDFAIDLNGKKYAWQGVALLPFVDERRLRAALEEVYPDLTPEETRRNSLGGDVLFVGKHHPLHDFILELYQTGSTEPVEVPPELCHGIQGKFSLDEEAILPDQIVCSPVPMLRDLTQNTVVSINFKDPQFAEDYIFKAVMLPGARKPAAVLKPSDWEKSSNGRQWKPQLGFNRDRRPVHLDQAAFRTLGHVMPRGSGTGIYSNAAPPPVTYQGNLYRPLLRGQAQIPKLMSNMRPQDSWRGPPPLFQQQRFDRGVGAEPLLPWNRMLQTQNAAFQPNQYQMLAGPGGYPPRRDDRGGRQGYPREGRKYPLPPPSGRYNWN",binds
2,"Zinc finger protein 326 (protein, UniProt Q5BKZ1 1-582) MDFEDDYTHSACRNTYQGFNGMDRDYGPGSYGGMDRDYGHGSYGGQRSMDSYLNQSYGMDNHSGGGGGSRFGPYESYDSRSSLGGRDLYRSGYGFNEPEQSRFGGSYGGRFESSYRNSLDSFGGRNQGGSSWEAPYSRSKLRPGFMEDRGRENYSSYSSFSSPHMKPAPVGSRGRGTPAYPESTFGSRNYDAFGGPSTGRGRGRGHMGDFGSIHRPGIVVDYQNKSTNVTVAAARGIKRKMMQPFNKPSGTFIKKPKLAKPMEKISLSKSPTKTDPKNEEEEKRRIEARREKQRRRREKNSEKYGDGYRMAFTCSFCKFRTFEEKDIELHLESSSHQETLDHIQKQTKFDKVVMEFLHECMVNKFKKTSIRKQQTNNQTEVVKIIEKDVMEGVTVDDHMMKVETVHCSACSVYIPALHSSVQQHLKSPDHIKGKQAYKEQIKRESVLTATSILNNPIVKARYERFVKGENPFEIQDHSQDQQIEGDEEDEEKIDEPIEEEEDEDEEEEAEEVGEVEEVEEVEEVREGGIEGEGNIQGVGEGGEVGVVGEVEGVGEVEEVEELEEETAKEEPADFPVEQPEEN",binds
3,"Probable ATP-dependent RNA helicase DDX56 (protein, UniProt Q9NY93 1-547) MEDSEALGFEHMGLDPRLLQAVTDLGWSRPTLIQEKAIPLALEGKDLLARARTGSGKTAAYAIPMLQLLLHRKATGPVVEQAVRGLVLVPTKELARQAQSMIQQLATYCARDVRVANVSAAEDSVSQRAVLMEKPDVVVGTPSRILSHLQQDSLKLRDSLELLVVDEADLLFSFGFEEELKSLLCHLPRIYQAFLMSATFNEDVQALKELILHNPVTLKLQESQLPGPDQLQQFQVVCETEEDKFLLLYALLKLSLIRGKSLLFVNTLERSYRLRLFLEQFSIPTCVLNGELPLRSRCHIISQFNQGFYDCVIATDAEVLGAPVKGKRRGRGPKGDKASDPEAGVARGIDFHHVSAVLNFDLPPTPEAYIHRAGRTARANNPGIVLTFVLPTEQFHLGKIEELLSGENRGPILLPYQFRMEEIEGFRYRCRDAMRSVTKQAIREARLKEIKEELLHSEKLKTYFEDNPRDLQLLRHDLPLHPAVVKPHLGHVPDYLVPPALRGLVRPHKKRKKLSSSCRKAKRAKSQNPLRSFKHKGKKFRPTAKPS",binds
4,"Putative ATP-dependent RNA helicase DHX30 (protein, UniProt Q7L2E3 1-1194) MFSLDSFRKDRAQHRQRQCKLPPPRLPPMCVNPTPGGTISRASRDLLKEFPQPKNLLNSVIGRALGISHAKDKLVYVHTNGPKKKKVTLHIKWPKSVEVEGYGSKKIDAERQAAAAACQLFKGWGLLGPRNELFDAAKYRVLADRFGSPADSWWRPEPTMPPTSWRQLNPESIRPGGPGGLSRSLGREEEEDEEEELEEGTIDVTDFLSMTQQDSHAPLRDSRGSSFEMTDDDSAIRALTQFPLPKNLLAKVIQIATSSSTAKNLMQFHTVGTKTKLSTLTLLWPCPMTFVAKGRRKAEAENKAAALACKKLKSLGLVDRNNEPLTHAMYNLASLRELGETQRRPCTIQVPEPILRKIETFLNHYPVESSWIAPELRLQSDDILPLGKDSGPLSDPITGKPYVPLLEAEEVRLSQSLLELWRRRGPVWQEAPQLPVDPHRDTILNAIEQHPVVVISGDTGCGKTTRIPQLLLERYVTEGRGARCNVIITQPRRISAVSVAQRVSHELGPSLRRNVGFQVRLESKPPSRGGALLFCTVGILLRKLQSNPSLEGVSHVIVDEVHERDVNTDFLLILLKGLQRLNPALRLVLMSATGDNERFSRYFGGCPVIKVPGFMYPVKEHYLEDILAKLGKHQYLHRHRHHESEDECALDLDLVTDLVLHIDARGEPGGILCFLPGWQEIKGVQQRLQEALGMHESKYLILPVHSNIPMMDQKAIFQQPPVGVRKIVLATNIAETSITINDIVHVVDSGLHKEERYDLKTKVSCLETVWVSRANVIQRRGRAGRCQSGFAYHLFPRSRLEKMVPFQVPEILRTPLENLVLQAKIHMPEKTAVEFLSKAVDSPNIKAVDEAVILLQEIGVLDQREYLTTLGQRLAHISTDPRLAKAIVLAAIFRCLHPLLVVVSCLTRDPFSSSLQNRAEVDKVKALLSHDSGSDHLAFVRAVAGWEEVLRWQDRSSRENYLEENLLYAPSLRFIHGLIKQFSENIYEAFLVGKPSDCTLASAQCNEYSEEEELVKGVLMAGLYPNLIQVRQGKVTRQGKFKPNSVTYRTKSGNILLHKSTINREATRLRSRWLTYFMAVKSNGSVFVRDSSQVHPLAVLLLTDGDVHIRDDGRRATISLSDSDLLRLEGDSRTVRLLKELRRALGRMVERSLRSELAALPPSVQEEHGQLLALLAELLRGPCGSFDVRKTADD",binds
5,"H/ACA ribonucleoprotein complex subunit 4 (protein, UniProt O60832 1-514) MADAEVIILPKKHKKKKERKSLPEEDVAEIQHAEEFLIKPESKVAKLDTSQWPLLLKNFDKLNVRTTHYTPLACGSNPLKREIGDYIRTGFINLDKPSNPSSHEVVAWIRRILRVEKTGHSGTLDPKVTGCLIVCIERATRLVKSQQSAGKEYVGIVRLHNAIEGGTQLSRALETLTGALFQRPPLIAAVKRQLRVRTIYESKMIEYDPERRLGIFWVSCEAGTYIRTLCVHLGLLLGVGGQMQELRRVRSGVMSEKDHMVTMHDVLDAQWLYDNHKDESYLRRVVYPLEKLLTSHKRLVMKDSAVNAICYGAKIMLPGVLRYEDGIEVNQEIVVITTKGEAICMAIALMTTAVISTCDHGIVAKIKRVIMERDTYPRKWGLGPKASQKKLMIKQGLLDKHGKPTDSTPATWKQEYVDYSESAKKEVVAEVVKAPQVVAEAAKTAKRKRESESESDETPPAAPQLIKKEKKKSKKDKKAKAGLESGAEPGDGDSDTTKKKKKKKKAKEVELVSE",binds
6,"Deoxynucleotidyltransferase terminal-interacting protein 2 (protein, UniProt Q5QJE6 1-756) MVVTRSARAKASIQAASAESSGQKSFAANGIQAHPESSTGSDARTTAESQTTGKQSLIPRTPKARKRKSRTTGSLPKGTEPSTDGETSEAESNYSVSEHHDTILRVTRRRQILIACSPVSSVRKKPKVTPTKESYTEEIVSEAESHVSGISRIVLPTEKTTGARRSKAKSLTDPSQESHTEAISDAETSSSDISFSGIATRRTRSMQRKLKAQTEKKDSKIVPGNEKQIVGTPVNSEDSDTRQTSHLQARSLSEINKPNFYNNDFDDDFSHRSSENILTVHEQANVESLKETKQNCKDLDEDANGITDEGKEINEKSSQLKNLSELQDTSLQQLVSQRHSTPQNKNAVSVHSNLNSEAVMKSLTQTFATVEVGRWNNNKKSPIKASDLTKFGDCGGSDDEEESTVISVSEDMNSEGNVDFECDTKLYTSAPNTSQGKDNSVLLVLSSDESQQSENSENEEDTLCFVENSGQRESLSGDTGSLSCDNALFVIDTTPGMSADKNFYLEEEDKASEVAIEEEKEEEEDEKSEEDSSDHDENEDEFSDEEDFLNSTKAKLLKLTSSSIDPGLSIKQLGGLYINFNADKLQSNKRTLTQIKEKKKNELLQKAVITPDFEKNHCVPPYSESKYQLQKKRRKERQKTAGDGWFGMKAPEMTNELKNDLKALKMRASMDPKRFYKKNDRDGFPKYFQIGTIVDNPADFYHSRIPKKQRKRTIVEELLADSEFRRYNRRKYSEIMAEKAANAAGKKFRKKKKFRN",binds
7,"Probable rRNA-processing protein EBP2 (protein, UniProt Q99848 1-306) MDTPPLSDSESESDESLVTDRELQDAFSRGLLKPGLNVVLEGPKKAVNDVNGLKQCLAEFKRDLEWVERLDVTLGPVPEIGGSEAPAPQNKDQKAVDPEDDFQREMSFYRQAQAAVLAVLPRLHQLKVPTKRPTDYFAEMAKSDLQMQKIRQKLQTKQAAMERSEKAKQLRALRKYGKKVQTEVLQKRQQEKAHMMNAIKKYQKGFSDKLDFLEGDQKPLAQRKKAGAKGQQMRKGPSAKRRYKNQKFGFGGKKKGSKWNTRESYDDVSSFRAKTAHGRGLKRPGKKGSNKRPGKRTREKMKNRTH",binds
8,"Putative rRNA methyltransferase 3 (protein, UniProt Q8IY81 1-847) MGKKGKVGKSRRDKFYHLAKETGYRSRSAFKLIQLNRRFQFLQKARALLDLCAAPGGWLQVAAKFMPVSSLIVGVDLVPIKPLPNVVTLQQDITTERCRQALRKELKTWKVDVVLNDGAPNVGASWVHDAYSQAHLTLMALRLACDFLARGGSFITKVFRSRDYQPLLWIFQQLFRRVQATKPQASRHESAEIFVVCQGFLAPDKVDSKFFDPKFAFKEVEVQAKTVTELVTKKKPKAEGYAEGDLTLYHRTSVTDFLRAANPVDFLSKASEIMVDDEELAQHPATTEDIRVCCQDIRVLGRKELRSLLNWRTKLRRYVAKKLKEQAKALDISLSSGEEDEGDEEDSTAGTTKQPSKEEEEEEEEEQLNQTLAEMKAQEVAELKRKKKKLLREQRKQRERVELKMDLPGVSIADEGETGMFSLSTIRGHQLLEEVTQGDMSAADTFLSDLPRDDIYVSDVEDDGDDTSLDSDLDPEELAGVRGHQGLRDQKRMRLTEVQDDKEEEEEENPLLVPLEEKAVLQEEQANLWFSKGSFAGIEDDADEALEISQAQLLFENRRKGRQQQQKQQLPQTPPSCLKTEIMSPLYQDEAPKGTEASSGTEAATGLEGEEKDGISDSDSSTSSEEEESWEPLRGKKRSRGPKSDDDGFEIVPIEDPAKHRILDPEGLALGAVIASSKKAKRDLIDNSFNRYTFNEDEGELPEWFVQEEKQHRIRQLPVGKKEVEHYRKRWREINARPIKKVAEAKARKKRRMLKRLEQTRKKAEAVVNTVDISEREKVAQLRSLYKKAGLGKEKRHVTYVVAKKGVGRKVRRPAGVRGHFKVVDSRMKKDQRAQQRKEQKKKHKRK",binds
